According to publication PMC5902613:
These are yes or no findings as the source states them, for the method shown. In cells and extracts the contact can be indirect. A yes stands for co-enrichment or nearness to the bait. Other partners may have been found.

By UniProt entry, the sequences of proteins in these tests, tags left out.
UniProt P31269: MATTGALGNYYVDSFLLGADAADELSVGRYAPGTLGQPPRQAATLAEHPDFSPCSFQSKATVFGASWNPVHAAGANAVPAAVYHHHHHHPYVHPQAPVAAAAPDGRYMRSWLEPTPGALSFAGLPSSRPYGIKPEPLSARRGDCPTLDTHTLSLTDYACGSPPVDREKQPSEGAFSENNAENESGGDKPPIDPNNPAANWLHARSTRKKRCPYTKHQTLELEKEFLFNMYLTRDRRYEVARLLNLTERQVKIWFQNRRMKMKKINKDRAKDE

Molecular target: Homeobox A9 (HOXA9) (human (endogenous in the paper's human cell lines)) (UniProt P31269)
Assay: affinity purification with mass spectrometry; immunoprecipitation from cell lysate with a HOXA9 antibody or non-specific IgG control; 20 ug of precipitated protein mix separated by SDS-PAGE, in-gel tryptic digestion, Orbitrap Fusion LC-MS/MS

- binding: binds
B1: CRIP2 (protein, UniProt P52943 1-208)
chain: MASKCPKCDKTVYFAEKVSSLGKDWHKFCLKCERCSKTLTPGGHAEHDGKPFCHKPCYATLFGPKGVNIGGAGSYIYEKPLAEGPQVTGPIEVPAARAEERKASGPPKGPSRASSVTTFTGEPNTCPRCSKKVYFAEKVTSLGKDWHRPCLRCERCGKTLTPGGHAEHDGQPYCHKPCYGILFGPKGVNTGAVGSYIYDRDPEGKVQP
